Results taken from paper PMC8165280.
No constants are given. Whether binding was seen depends on the method and setting. In cells and extracts the contact can be indirect. Some entries that bind do so weakly or less than the wild type. Sequences can lack the tags named with a protein.

Target: T1, Flag-B7H3 (UniProt Q5ZPR3)
T1 sequence: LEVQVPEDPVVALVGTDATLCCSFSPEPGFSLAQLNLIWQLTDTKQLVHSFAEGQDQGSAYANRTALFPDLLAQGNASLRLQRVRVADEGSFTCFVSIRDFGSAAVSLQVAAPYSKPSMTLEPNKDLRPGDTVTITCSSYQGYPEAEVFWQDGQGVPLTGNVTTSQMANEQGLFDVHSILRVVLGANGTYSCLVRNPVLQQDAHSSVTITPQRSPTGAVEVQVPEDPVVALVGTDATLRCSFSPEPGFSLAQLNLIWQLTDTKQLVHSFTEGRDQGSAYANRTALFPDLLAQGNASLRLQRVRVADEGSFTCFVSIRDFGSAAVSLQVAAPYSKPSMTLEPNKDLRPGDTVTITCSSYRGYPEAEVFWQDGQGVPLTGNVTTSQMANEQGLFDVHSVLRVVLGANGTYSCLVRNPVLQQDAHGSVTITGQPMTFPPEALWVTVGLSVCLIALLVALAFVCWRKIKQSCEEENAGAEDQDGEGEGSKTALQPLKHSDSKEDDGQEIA
Assay: co-IP; Flag-B7H3 co-expressed with Myc-p62 in HEK293T cells, with or without CQ for 24 h; lysis in 0.3% NP-40 buffer (50 mM Tris-HCl pH 7.5, 150 mM NaCl); anti-Flag M2 affinity beads 3 h at 4°C; immunoblotting

binding: binds
Substance: Myc-p62 (from UniProt Q13501 1-440)
